Substitutions are numbered along the chain they refer to. Results are given in words; binding and its absence hold for the method and conditions named. Some binding calls cover weakened binding; strength is not graded here.
B1: SEQ ID NO 231 (designed binder)
chain: NVSPPRRARVTDATETTITIRWTLGISGNSIVPGFQVDAVPANGQTPIQRTINADTTTYTITGLQPGTDYKIYLYTLNDNARSSPVVIDAST
B2: SEQ ID NO 232 (designed binder)
chain: B1 chain with L24V, G25P, I26V, G28A, S30G, I31Q, V32I, G34S, T56V, T57S
B3: SEQ ID NO 233 (designed binder)
chain: NVSPPRRARVTDATETTITISWRTKTETITGFQVDAVPANGQTPIQRTIETGARGYTITGLQPGTDYKIYLYTLNEDGGSAYTELTGVIDAST
B4: SEQ ID NO 234 (designed binder)
chain: B1 chain with L24Q, I26V, G28R, S30G, I31T, V32I, T57S
B5: SEQ ID NO 235 (designed binder)
chain: NVSPPRRARVTDATETTITIRWKQPIKPDSVIPSFQVDAVPANGQTPIQRTINADISTYTITGLQPGTDYKIYLYTLNDNARSSPVVIDAST
B6: SEQ ID NO 236 (designed binder)
chain: B5 chain with K23E, Q24A, P25G, I26V, K27E, P28A, S30G, V31E, I32V, I56T
B7: SEQ ID NO 237 (designed binder)
chain: NVSPPRRARVTDATETTITIRWTRAGSEVDGFQVDAVPANGQTPIQRTINADTNVYTITGLQPGTDYKIYLYTLNDNARSSPVVIDAST
B8: SEQ ID NO 238 (designed binder)
chain: B5 chain with K23Q, I26V, K27E, P28A, S30G, V31I, N53H
B9: SEQ ID NO 239 (designed binder)
chain: B5 chain with K23E, Q24L, K27N, P28R, D29N, V31T
B10: SEQ ID NO 240 (designed binder)
chain: B7 chain with T23E, G26P, N50H, V55I
B11: SEQ ID NO 241 (designed binder)
chain: B1 chain with T23Q, G25P, I26G, S27D, G28A, S30G, I31E, T56V, T57S
B12: SEQ ID NO 242 (designed binder)
chain: NVSPPRRARVTDATETTITIRWTLAGPIAGFQVDAVPANGQTPIQRTIHADTSTYTITGLQPGTDYKIYLYTLNDNARSSPVVIDAST
B13: SEQ ID NO 243 (designed binder)
chain: B5 chain with Q24L, K27E, P28A, S30G, V31I, I32V, N53Q, I56V
B14: SEQ ID NO 244 (designed binder)
chain: NVSPPRRARVTDATETTITIRWRAPEANGGSAVPGFQVDAVPANGQTPIQRTINADTSTYTITGLQPGTDYKIYLYTLNDNARSSPVVIDAST
B15: SEQ ID NO 245 (designed binder)
chain: NVSPPRRARVTDATETTITIRWKVPVHRNSTLISFQVDAVPANGQTPIQRTINATTNVYTITGLQPGTDYKIYLYTLNDNARSSPVVIDAST
B16: SEQ ID NO 246 (designed binder)
chain: B7 chain with T23E, G26Q, S27G, N50H
B17: SEQ ID NO 247 (designed binder)
chain: B12 chain with L24R, G26P, P27S, I28Q, A29D, H49N, S53T, T54V
B18: 1637102_VGR2H03 (designed binder)
chain: B1 chain with G25P, I26V, S27Q, G28A, S30G, N53H, T56V, T57S
B19: SEQ ID NO 249 (designed binder)
chain: B14 chain with R23G, A27D, N28D, S31G, A32T
B20: SEQ ID NO 485 (designed binder)
chain: NVSPPRRARVTDATETTITIRWAVPGFQVDAVPANGQTPIQRTIQRGVRAYTITGLQPGTDYKIYLYTLNDNARSSPVVIDAST
B21: SEQ ID NO 486 (designed binder)
chain: NVSPPRRARVTDATETTITISWRTKTETITGIQVDAVPANGQTPIQRTIATNVHVYTITGLQPGTDYKIYLYTLTGRGDSSSPVVIDAST
B22: SEQ ID NO 487 (designed binder)
chain: B20 chain with A23K, P25L, Q45K, G47N, V48I, R49S, A50S
B23: SEQ ID NO 488 (designed binder)
chain: NVSPPRRARVTDATETTITIRWAQVLRFQVDAVPANGQTPIQRTIKRDVHSYTITGLQPGTDYKIYLYTLNDNARSSPVVIDAST
B24: SEQ ID NO 489 (designed binder)
chain: B20 chain with A23K, Q45A, A50V
B25: SEQ ID NO 490 (designed binder)
chain: B20 chain with A23G, V24E, P25L, Q45K, G47A, V48A, R49N, A50T
B26: SEQ ID NO 491 (designed binder)
chain: B20 chain with A23G, P25T, Q45K, G47N, V48A, A50S
B27: SEQ ID NO 492 (designed binder)
chain: B20 chain with A23R, P25A, Q45A, G47N, V48T, R49H, A50S
B28: SEQ ID NO 493 (designed binder)
chain: B20 chain with A23T, V24G, P25Q, G26R, Q45K, R46T, G47T, V48I, R49H, A50G
B29: SEQ ID NO 494 (designed binder)
chain: B20 chain with A23G, V24Q, P25T, Q45K, G47A, V48A, R49T, A50S
B30: SEQ ID NO 495 (designed binder)
chain: NVSPPRRARVTDATETTITIRWALPRSAFDRFQVDAVPANGQTPIQRTITTSIRTYTITGLQPGTDYKIYLYTLNDNARSSPVVIDAST
B31: SEQ ID NO 496 (designed binder)
chain: B20 chain with A23K, P25D, V32F, Q45H, G47A, R49N, A50V, S75N, S76N
B32: SEQ ID NO 498 (designed binder)
chain: NVSPPRRARVTDATETTITIRWAAGFQVDAVPANGQTPIQRTIKRNINSYTITGLKPGTDYKIYLYTLNDNARSSPVVIDAST

Sequences of proteins named here, by UniProt entry; tags and fusion partners are left off. Residues count along the entry.
UniProt P35968, residues 20-764: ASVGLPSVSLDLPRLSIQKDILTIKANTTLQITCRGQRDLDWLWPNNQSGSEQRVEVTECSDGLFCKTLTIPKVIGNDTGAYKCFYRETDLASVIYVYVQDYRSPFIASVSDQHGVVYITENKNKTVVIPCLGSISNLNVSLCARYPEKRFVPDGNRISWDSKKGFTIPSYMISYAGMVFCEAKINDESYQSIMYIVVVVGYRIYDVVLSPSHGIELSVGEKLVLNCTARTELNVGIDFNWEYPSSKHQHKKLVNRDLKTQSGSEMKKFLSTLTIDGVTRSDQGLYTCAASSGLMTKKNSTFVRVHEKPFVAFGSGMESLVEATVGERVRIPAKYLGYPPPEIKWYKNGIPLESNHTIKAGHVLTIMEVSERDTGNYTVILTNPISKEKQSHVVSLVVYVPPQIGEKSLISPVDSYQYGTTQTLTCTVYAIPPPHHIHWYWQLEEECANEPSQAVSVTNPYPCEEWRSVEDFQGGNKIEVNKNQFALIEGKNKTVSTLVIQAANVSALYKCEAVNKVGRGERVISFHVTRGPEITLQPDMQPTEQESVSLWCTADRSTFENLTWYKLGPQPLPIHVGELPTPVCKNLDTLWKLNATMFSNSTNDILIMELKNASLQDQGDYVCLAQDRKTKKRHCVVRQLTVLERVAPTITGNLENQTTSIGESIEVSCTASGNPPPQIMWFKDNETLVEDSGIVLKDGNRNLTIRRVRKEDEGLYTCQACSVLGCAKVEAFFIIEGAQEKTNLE
UniProt P30530, residues 26-449: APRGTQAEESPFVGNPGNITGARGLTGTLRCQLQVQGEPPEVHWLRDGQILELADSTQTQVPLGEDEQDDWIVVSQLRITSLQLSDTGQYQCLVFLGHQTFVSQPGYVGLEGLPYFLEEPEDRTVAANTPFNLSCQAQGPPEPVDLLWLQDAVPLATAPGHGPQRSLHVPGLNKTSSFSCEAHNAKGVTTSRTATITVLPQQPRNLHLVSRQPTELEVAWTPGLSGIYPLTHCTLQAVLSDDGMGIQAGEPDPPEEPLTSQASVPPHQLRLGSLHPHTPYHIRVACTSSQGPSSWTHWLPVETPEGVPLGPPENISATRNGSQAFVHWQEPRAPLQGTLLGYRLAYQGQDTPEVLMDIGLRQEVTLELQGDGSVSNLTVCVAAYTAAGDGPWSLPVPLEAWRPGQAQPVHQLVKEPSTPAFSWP

Key:
[1] = molecular target: VEGFR2 (UniProt P35968); test: phage display selection
[2] = molecular target: Axl (UniProt P30530); test: phage display selection

| Binder | binding [1] | binding [2] |
| --- | --- | --- |
| B1 | binds | – |
| B2 | binds | – |
| B3 | binds | – |
| B4 | binds | – |
| B5 | binds | – |
| B6 | binds | – |
| B7 | binds | – |
| B8 | binds | – |
| B9 | binds | – |
| B10 | binds | – |
| B11 | binds | – |
| B12 | binds | – |
| B13 | binds | – |
| B14 | binds | – |
| B15 | binds | – |
| B16 | binds | – |

| Binder | binding [1] | binding [2] |
| --- | --- | --- |
| B17 | binds | – |
| B18 | binds | – |
| B19 | binds | – |
| B20 | – | binds |
| B21 | – | binds |
| B22 | – | binds |
| B23 | – | binds |
| B24 | – | binds |
| B25 | – | binds |
| B26 | – | binds |
| B27 | – | binds |
| B28 | – | binds |
| B29 | – | binds |
| B30 | – | binds |
| B31 | – | binds |
| B32 | – | binds |

From US20110021746A1 (published 2011)
